This is one part of the list.
Key:
Assay in all cases: glycan array binding signal (z-score within array); higher = stronger binding
Conditions in all cases: glycan notation: IUPAC condensed, linker removed
[1] = target: Kdn(a2-3)Gal(b1-4)[Fuc(a1-3)]GlcNAc
Procedure, shortened: (§1)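 Negative Z-scores can be read as non-binding. The Z-score is calculated within each array and then averaged across arrays of one protein sequence at different concentrations or buffers and across linkers. Arrays, 3228 in all, were curated from the Consortium for Functional Glycomics database and kept only where the protein sequence was available.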

Kdn(a2-6)Gal(b1-4)GlcNAc = target: Kdn(a2-6)Gal(b1-4)GlcNAc
Procedure, shortened: as §1

[2] = target: Man(a1-2)Man(a1-2)Man(a1-3)Man
Procedure, shortened: as §1

[3] = target: Man(a1-2)Man(a1-2)Man(a1-6)[Man(a1-3)]Man
Procedure, shortened: as §1

Man(a1-2)Man(a1-3)Man = target: Man(a1-2)Man(a1-3)Man
Procedure, shortened: as §1

[4] = target: Man(a1-2)Man(a1-3)[Man(a1-2)Man(a1-6)]Man
Procedure, shortened: as §1

[5] = target: Man(a1-2)Man(a1-3)[Man(a1-2)Man(a1-6)]Man(a1-6)[Man(a1-2)Man(a1-2)Man(a1-3)]Man
Procedure, shortened: as §1

[6] = target: Man(a1-2)Man(a1-3)[Man(a1-2)Man(a1-6)]Man(a1-6)[Man(a1-2)Man(a1-2)Man(a1-3)]Man(b1-4)GlcNAc(b1-4)GlcNAc
Procedure, shortened: as §1

[7] = target: Man(a1-2)Man(a1-3)[Man(a1-6)]Man(a1-6)[Man(a1-2)Man(a1-3)]Man(b1-4)GlcNAc(b1-4)GlcNAc
Procedure, shortened: as §1

[8] = target: Man(a1-2)Man(a1-6)[Man(a1-3)]Man(a1-6)[Man(a1-2)Man(a1-2)Man(a1-3)]Man
Procedure, shortened: as §1

[9] = target: Man(a1-2)Man(a1-6)[Man(a1-3)]Man(a1-6)[Man(a1-2)Man(a1-2)Man(a1-3)]Man(b1-4)GlcNAc(b1-4)GlcNAc
Procedure, shortened: as §1

Man(a1-3)[Man(a1-6)]Man = target: Man(a1-3)[Man(a1-6)]Man
Procedure, shortened: as §1

[10] = target: Man(a1-3)[Man(a1-6)]Man(a1-6)[Man(a1-2)Man(a1-3)]Man(b1-4)GlcNAc(b1-4)GlcNAc
Procedure, shortened: as §1

[11] = target: Man(a1-3)[Man(a1-6)]Man(a1-6)[Man(a1-3)]Man
Procedure, shortened: as §1

[12] = target: Man(a1-3)[Man(a1-6)]Man(a1-6)[Man(a1-3)]Man(b1-4)GlcNAc(b1-4)GlcNAc
Procedure, shortened: as §1

[13] = target: Man(a1-3)[Man(a1-6)]Man(b1-4)GlcNAc(b1-4)GlcNAc
Procedure, shortened: as §1

Man(a1-6)Man = target: Man(a1-6)Man
Procedure, shortened: as §1

Man(b1-4)GlcNAc = target: Man(b1-4)GlcNAc
Procedure, shortened: as §1

Neu5Ac(a2-3)Gal = target: Neu5Ac(a2-3)Gal
Procedure, shortened: as §1

[14] = target: Neu5Ac(a2-3)Gal(b1-3)GalNAc
Procedure, shortened: as §1

[15] = target: Neu5Ac(a2-3)Gal(b1-3)GalNAc(b1-3)Gal(a1-4)Gal(b1-4)Glc
Procedure, shortened: as §1

[16] = target: Neu5Ac(a2-3)Gal(b1-3)GalNAc(b1-4)[Neu5Ac(a2-3)]Gal(b1-4)Glc
Procedure, shortened: as §1

[17] = target: Neu5Ac(a2-3)Gal(b1-3)GalNAc6S
Procedure, shortened: as §1

[18] = target: Neu5Ac(a2-3)Gal(b1-3)GlcNAc
Procedure, shortened: as §1

[19] = target: Neu5Ac(a2-3)Gal(b1-3)GlcNAc(b1-2)Man(a1-3)[Neu5Ac(a2-3)Gal(b1-3)GlcNAc(b1-2)Man(a1-6)]Man(b1-4)GlcNAc(b1-4)GlcNAc
Procedure, shortened: as §1

[20] = target: Neu5Ac(a2-3)Gal(b1-3)GlcNAc(b1-3)Gal(b1-3)GlcNAc
Procedure, shortened: as §1

[21] = target: Neu5Ac(a2-3)Gal(b1-3)GlcNAc(b1-3)Gal(b1-4)GlcNAc
Procedure, shortened: as §1

[22] = target: Neu5Ac(a2-3)Gal(b1-3)GlcNAc(b1-3)GalNAc
Procedure, shortened: as §1

[23] = target: Neu5Ac(a2-3)Gal(b1-3)GlcNAc6S
Procedure, shortened: as §1

[24] = target: Neu5Ac(a2-3)Gal(b1-3)[Fuc(a1-4)]GlcNAc
Procedure, shortened: as §1

[25] = target: Neu5Ac(a2-3)Gal(b1-3)[Fuc(a1-4)]GlcNAc(b1-3)Gal(b1-3)[Fuc(a1-4)]GlcNAc
Procedure, shortened: as §1

[26] = target: Neu5Ac(a2-3)Gal(b1-3)[Fuc(a1-4)]GlcNAc(b1-3)Gal(b1-4)[Fuc(a1-3)]GlcNAc
Procedure, shortened: as §1

[27] = target: Neu5Ac(a2-3)Gal(b1-3)[Neu5Ac(a2-3)Gal(b1-4)]GlcNAc
Procedure, shortened: as §1

[28] = target: Neu5Ac(a2-3)Gal(b1-3)[Neu5Ac(a2-6)]GalNAc
Procedure, shortened: as §1

Neu5Ac(a2-3)Gal(b1-4)Glc = target: Neu5Ac(a2-3)Gal(b1-4)Glc
Procedure, shortened: as §1

B1: AcfC (Vibrio cholerae), Q57410 (protein)
chain: MKSKNRFLLISLLSFSTSVFADVNLYGPGGPHVPLIKVAESFEKSQSKRVNITFGPQATWNDKAKKNADILFGASEHSALAIAEGHSERFSKFNIHPVFMREAIILVKKGNPKNIKGMADLLKPGIGIVVNDGAGVSNTSGTAVWEDSVGRMKNVEKLQAFRSNIHVFAPNSGSARKAFVDGEDIDAWITWVDWAIANPTIGDMVRMEDEYRIYRDFNVVLAKNPSSEAIDFFDYLTKSKDAEAIFQHYGWFK
With B1 the “glycan array binding signal (z-score)” value [1] was -0.465, the “glycan array binding signal (z-score)” value (Kdn(a2-6)Gal(b1-4)GlcNAc) was -0.748 and the “glycan array binding signal (z-score)” value [2] was -0.13. For the same binder, the “glycan array binding signal (z-score)” value [3] was -0.753, the “glycan array binding signal (z-score)” value (Man(a1-2)Man(a1-3)Man) was -0.096 and the “glycan array binding signal (z-score)” value [4] was -0.337. For the same binder, the “glycan array binding signal (z-score)” value [5] was -0.506, the “glycan array binding signal (z-score)” value [6] was 0.074 and the “glycan array binding signal (z-score)” value [7] was -0.459. For the same binder, the “glycan array binding signal (z-score)” value [8] was -0.222, the “glycan array binding signal (z-score)” value [9] was -0.097 and the “glycan array binding signal (z-score)” value (Man(a1-3)[Man(a1-6)]Man) was -0.136. The “glycan array binding signal (z-score)” value [10] was -1.02, the “glycan array binding signal (z-score)” value [11] was 0.134 and the “glycan array binding signal (z-score)” value [12] was -0.511. The “glycan array binding signal (z-score)” value [13] was 0.521, the “glycan array binding signal (z-score)” value (Man(a1-6)Man) was -1.06 and the “glycan array binding signal (z-score)” value (Man(b1-4)GlcNAc) was 0.11. For the same binder, the “glycan array binding signal (z-score)” value (Neu5Ac(a2-3)Gal) was -0.174, the “glycan array binding signal (z-score)” value [14] was 0.1 and the “glycan array binding signal (z-score)” value [15] was -0.717. For the same binder, the “glycan array binding signal (z-score)” value [16] was 0.14, the “glycan array binding signal (z-score)” value [17] was 0.717 and the “glycan array binding signal (z-score)” value [18] was 0.153. For the same binder, the “glycan array binding signal (z-score)” value [19] was -1.19, the “glycan array binding signal (z-score)” value [20] was 0.612 and the “glycan array binding signal (z-score)” value [21] was 0.502. The “glycan array binding signal (z-score)” value [22] was -1.13, the “glycan array binding signal (z-score)” value [23] was -0.326 and the “glycan array binding signal (z-score)” value [24] was -0.296. The “glycan array binding signal (z-score)” value [25] was 0.566, the “glycan array binding signal (z-score)” value [26] was 0.2 and the “glycan array binding signal (z-score)” value [27] was 0.1. The “glycan array binding signal (z-score)” value [28] was 1.01 and the “glycan array binding signal (z-score)” value (Neu5Ac(a2-3)Gal(b1-4)Glc) was -0.649.

From the supplement of paper PMC8728848
